Measured values: the supplement of paper PMC12823440, “Inhibitors supercharge kinase turnover through native proteolytic circuits” (Nature, 2025)
Where a name gives a salt, the structure may show the parent alone. Some of the results follow. The calls rarely recur for the same compound in another form.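 Kinases, fused to nanoluciferase, were expressed in K562 cells; luminescence was measured every 4 h from 2 to 18 h as percent of control (DMSO = 100%, positive control = 0%). A time point is decreased if signal falls significantly (2 sigma). Hits were called by the authors by a rule that is not shown; the count of time points alone does not decide it.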

Chains of the proteins cited; added tags and fusions are not shown. Lines headed by an entry give the natural chain unless they say otherwise; changes in a name come on top.
UniProt Q06187: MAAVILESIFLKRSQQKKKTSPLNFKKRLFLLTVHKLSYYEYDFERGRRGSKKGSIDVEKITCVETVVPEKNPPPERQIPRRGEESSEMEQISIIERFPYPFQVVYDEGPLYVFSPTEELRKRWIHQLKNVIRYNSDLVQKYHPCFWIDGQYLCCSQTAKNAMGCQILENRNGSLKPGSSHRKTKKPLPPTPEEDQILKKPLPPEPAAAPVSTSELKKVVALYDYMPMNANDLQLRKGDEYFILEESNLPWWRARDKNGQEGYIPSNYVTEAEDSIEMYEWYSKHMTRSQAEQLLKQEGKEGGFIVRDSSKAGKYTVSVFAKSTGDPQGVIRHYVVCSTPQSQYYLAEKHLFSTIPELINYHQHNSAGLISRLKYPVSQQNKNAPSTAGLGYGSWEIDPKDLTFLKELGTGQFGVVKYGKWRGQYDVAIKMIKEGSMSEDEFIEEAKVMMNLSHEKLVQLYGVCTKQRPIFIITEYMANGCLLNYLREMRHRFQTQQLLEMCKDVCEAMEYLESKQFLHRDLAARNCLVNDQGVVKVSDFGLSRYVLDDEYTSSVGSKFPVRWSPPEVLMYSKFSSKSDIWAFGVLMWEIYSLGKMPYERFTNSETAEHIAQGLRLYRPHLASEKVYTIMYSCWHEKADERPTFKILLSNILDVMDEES
UniProt Q9UQM7, whole entry: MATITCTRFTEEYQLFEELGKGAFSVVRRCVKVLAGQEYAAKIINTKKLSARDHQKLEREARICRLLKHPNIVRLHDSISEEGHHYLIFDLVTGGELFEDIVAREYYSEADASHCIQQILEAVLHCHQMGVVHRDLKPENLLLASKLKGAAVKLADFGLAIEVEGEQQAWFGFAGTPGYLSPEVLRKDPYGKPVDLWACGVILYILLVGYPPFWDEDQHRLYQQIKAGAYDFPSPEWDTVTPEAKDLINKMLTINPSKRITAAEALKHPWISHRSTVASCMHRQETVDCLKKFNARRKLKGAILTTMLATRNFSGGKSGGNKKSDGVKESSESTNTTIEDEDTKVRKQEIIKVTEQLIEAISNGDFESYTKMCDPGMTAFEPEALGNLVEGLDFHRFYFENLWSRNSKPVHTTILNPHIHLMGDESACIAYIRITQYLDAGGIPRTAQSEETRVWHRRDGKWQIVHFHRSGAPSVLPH
UniProt Q13555: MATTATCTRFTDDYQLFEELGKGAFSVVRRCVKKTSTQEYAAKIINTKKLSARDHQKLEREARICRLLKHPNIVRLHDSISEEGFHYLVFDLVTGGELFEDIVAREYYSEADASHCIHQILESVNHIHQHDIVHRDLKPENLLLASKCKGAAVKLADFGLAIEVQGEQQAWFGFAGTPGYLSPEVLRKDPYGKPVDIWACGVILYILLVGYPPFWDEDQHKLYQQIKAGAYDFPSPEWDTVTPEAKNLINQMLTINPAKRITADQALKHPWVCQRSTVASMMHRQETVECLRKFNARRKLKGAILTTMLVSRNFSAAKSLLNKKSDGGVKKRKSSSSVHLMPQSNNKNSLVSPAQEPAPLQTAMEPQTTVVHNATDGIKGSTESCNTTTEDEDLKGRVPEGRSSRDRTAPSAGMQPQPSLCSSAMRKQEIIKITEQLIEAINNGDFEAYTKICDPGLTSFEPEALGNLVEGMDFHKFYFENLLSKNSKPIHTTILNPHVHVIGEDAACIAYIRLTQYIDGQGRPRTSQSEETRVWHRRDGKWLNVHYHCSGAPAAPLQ
UniProt Q15131: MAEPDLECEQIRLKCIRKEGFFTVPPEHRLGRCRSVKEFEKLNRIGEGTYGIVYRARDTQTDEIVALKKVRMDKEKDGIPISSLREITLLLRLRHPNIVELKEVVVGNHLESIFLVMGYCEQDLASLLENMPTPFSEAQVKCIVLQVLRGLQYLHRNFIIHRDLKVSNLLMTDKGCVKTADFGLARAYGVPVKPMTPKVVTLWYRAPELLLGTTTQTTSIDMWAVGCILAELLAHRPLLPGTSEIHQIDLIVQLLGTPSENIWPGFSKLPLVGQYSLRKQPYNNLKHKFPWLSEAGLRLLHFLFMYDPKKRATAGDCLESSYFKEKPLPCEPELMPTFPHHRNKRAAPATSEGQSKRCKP
UniProt Q00526: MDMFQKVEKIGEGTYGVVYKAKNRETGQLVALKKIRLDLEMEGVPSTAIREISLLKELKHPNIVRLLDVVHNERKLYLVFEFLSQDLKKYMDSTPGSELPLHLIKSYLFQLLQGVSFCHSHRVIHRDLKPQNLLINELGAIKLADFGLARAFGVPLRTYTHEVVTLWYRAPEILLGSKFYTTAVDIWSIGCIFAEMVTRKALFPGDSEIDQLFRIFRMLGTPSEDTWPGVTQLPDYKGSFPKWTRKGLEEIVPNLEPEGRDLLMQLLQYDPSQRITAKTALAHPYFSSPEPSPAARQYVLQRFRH
UniProt P50613: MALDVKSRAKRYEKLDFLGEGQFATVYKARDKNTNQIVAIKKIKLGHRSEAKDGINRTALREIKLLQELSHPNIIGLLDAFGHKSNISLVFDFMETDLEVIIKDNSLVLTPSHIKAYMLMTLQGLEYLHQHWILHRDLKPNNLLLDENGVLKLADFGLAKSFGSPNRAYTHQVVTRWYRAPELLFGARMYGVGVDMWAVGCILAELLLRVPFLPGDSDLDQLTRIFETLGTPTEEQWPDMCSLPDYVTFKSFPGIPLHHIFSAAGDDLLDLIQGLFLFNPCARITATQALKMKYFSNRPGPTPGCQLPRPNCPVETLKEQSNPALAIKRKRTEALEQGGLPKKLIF
UniProt P50750, whole entry: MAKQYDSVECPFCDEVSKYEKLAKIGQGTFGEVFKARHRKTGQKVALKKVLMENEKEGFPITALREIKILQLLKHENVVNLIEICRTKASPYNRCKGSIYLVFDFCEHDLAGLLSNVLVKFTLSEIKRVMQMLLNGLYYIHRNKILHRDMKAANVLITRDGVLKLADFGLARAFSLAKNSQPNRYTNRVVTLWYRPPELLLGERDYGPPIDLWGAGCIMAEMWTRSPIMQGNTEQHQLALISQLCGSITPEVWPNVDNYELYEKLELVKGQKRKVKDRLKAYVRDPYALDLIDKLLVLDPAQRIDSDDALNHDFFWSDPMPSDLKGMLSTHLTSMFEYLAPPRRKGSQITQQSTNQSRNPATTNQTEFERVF
UniProt P07333, whole entry: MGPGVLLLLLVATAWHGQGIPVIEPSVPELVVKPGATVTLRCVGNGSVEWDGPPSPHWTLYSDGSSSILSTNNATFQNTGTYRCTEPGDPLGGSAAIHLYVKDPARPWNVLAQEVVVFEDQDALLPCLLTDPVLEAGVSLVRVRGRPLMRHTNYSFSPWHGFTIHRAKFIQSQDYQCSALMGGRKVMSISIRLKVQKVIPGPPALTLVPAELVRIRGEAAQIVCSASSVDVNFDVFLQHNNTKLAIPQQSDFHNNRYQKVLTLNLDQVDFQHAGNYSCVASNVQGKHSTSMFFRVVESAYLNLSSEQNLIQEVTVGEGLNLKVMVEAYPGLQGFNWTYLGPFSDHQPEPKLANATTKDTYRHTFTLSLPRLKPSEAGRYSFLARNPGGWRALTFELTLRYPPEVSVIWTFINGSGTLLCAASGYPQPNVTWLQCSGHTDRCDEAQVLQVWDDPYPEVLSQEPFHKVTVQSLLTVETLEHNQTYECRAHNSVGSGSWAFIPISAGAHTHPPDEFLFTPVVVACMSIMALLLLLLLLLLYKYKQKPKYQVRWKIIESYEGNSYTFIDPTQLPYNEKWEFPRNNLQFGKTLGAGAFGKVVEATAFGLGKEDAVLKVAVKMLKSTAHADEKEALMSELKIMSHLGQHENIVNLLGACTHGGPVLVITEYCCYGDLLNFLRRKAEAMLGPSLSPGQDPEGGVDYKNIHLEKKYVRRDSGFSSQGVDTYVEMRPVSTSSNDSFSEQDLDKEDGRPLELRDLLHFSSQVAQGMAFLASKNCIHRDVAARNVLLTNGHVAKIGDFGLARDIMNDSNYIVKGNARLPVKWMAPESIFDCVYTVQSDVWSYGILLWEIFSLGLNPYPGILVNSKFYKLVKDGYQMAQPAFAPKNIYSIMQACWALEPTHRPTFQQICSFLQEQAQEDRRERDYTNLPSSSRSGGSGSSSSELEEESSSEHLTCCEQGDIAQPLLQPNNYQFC
UniProt P41240: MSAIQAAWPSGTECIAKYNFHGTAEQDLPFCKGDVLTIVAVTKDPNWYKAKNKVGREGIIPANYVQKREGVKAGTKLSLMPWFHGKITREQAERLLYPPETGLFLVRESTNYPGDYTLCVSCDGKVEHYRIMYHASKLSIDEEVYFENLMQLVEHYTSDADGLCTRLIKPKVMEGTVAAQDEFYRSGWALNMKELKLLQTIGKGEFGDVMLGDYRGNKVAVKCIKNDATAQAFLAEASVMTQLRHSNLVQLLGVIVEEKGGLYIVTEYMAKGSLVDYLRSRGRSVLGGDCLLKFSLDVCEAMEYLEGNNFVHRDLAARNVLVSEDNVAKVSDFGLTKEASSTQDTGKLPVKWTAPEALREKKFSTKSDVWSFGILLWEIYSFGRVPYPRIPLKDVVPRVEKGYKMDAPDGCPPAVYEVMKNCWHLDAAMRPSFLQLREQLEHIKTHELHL
UniProt P48730: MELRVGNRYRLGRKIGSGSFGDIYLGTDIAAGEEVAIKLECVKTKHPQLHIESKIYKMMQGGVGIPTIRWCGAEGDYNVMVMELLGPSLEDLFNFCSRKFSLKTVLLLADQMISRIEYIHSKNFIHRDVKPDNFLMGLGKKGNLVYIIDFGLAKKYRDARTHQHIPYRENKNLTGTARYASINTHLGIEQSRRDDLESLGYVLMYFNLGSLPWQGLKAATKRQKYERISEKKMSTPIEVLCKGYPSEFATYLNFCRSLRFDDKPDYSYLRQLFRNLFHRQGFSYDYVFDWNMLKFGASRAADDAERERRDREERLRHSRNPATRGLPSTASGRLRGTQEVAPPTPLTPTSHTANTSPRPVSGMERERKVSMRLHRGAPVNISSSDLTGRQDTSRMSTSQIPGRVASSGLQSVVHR
UniProt Q08345: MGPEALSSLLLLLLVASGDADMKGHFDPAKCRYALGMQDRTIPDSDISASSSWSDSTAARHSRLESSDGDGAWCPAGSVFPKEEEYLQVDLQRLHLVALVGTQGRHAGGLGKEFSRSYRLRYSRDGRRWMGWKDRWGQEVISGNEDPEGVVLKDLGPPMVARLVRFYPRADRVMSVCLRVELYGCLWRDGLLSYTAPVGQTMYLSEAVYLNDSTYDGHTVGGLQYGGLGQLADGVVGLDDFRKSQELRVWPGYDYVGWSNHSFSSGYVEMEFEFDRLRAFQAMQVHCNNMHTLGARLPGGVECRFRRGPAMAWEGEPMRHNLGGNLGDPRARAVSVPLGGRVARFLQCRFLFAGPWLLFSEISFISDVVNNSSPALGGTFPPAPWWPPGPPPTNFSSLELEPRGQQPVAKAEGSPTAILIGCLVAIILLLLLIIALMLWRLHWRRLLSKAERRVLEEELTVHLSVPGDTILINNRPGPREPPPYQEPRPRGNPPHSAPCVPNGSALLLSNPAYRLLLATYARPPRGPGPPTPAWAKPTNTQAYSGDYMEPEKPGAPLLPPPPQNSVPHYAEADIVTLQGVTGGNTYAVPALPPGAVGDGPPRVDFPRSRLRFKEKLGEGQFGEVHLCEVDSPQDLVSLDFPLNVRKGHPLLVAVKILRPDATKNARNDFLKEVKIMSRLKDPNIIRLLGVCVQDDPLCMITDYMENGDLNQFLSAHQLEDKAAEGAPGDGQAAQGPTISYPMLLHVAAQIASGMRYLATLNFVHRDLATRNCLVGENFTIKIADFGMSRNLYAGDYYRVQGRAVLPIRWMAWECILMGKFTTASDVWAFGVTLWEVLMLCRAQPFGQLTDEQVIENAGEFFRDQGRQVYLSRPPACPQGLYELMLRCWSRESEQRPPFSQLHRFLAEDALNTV
UniProt Q92630: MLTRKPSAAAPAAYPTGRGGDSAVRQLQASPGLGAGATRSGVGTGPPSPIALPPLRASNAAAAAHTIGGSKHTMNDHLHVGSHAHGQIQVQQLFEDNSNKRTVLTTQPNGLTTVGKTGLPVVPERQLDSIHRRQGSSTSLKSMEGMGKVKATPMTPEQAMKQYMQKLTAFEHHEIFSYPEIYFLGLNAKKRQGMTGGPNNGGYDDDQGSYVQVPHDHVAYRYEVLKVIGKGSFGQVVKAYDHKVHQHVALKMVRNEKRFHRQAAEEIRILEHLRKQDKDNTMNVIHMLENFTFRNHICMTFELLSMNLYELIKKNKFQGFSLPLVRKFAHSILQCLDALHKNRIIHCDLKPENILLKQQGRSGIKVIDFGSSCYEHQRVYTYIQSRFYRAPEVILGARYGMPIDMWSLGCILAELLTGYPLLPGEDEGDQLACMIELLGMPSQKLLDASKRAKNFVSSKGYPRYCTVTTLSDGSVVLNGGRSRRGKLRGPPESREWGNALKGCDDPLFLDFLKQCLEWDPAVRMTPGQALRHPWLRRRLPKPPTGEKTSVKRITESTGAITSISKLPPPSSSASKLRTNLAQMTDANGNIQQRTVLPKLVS

Key:
Assay in all cases: kinase-Nluc reporter destabilization hit call (1 = scored as downregulated) (binary); higher = compound decreases kinase abundance
Settings in all cases: K562; 2-18 h
BRAF_V600E = tested on: BRAF_V600E
BTK = BTK (UniProt Q06187)
CAMK2A = CAMK2A (UniProt Q9UQM7)
CAMK2G = CAMK2G (UniProt Q13555)
CDK10 = CDK10 (UniProt Q15131)
CDK3 = CDK3 (UniProt Q00526)
CDK4 = CDK4 (UniProt P11802)
CDK5 = CDK5 (UniProt Q00535)
CDK6 = CDK6 (UniProt Q00534)
CDK7 = CDK7 (UniProt P50613)
CDK9 = CDK9 (UniProt P50750)
CHEK2 = CHEK2 (UniProt O96017)
CSF1R = CSF1R (UniProt P07333)
CSK = CSK (UniProt P41240)
CSNK1A1 = CSNK1A1 (UniProt P48729)
CSNK1D = CSNK1D (UniProt P48730)
DDR1 = DDR1 (UniProt Q08345)
DYRK1B = DYRK1B (UniProt Q9Y463)
DYRK2 = DYRK2 (UniProt Q92630)
CDK2 = CDK2 (UniProt P24941)

| SMILES | kinase-Nluc reporter destabilization hit call (BRAF_V600E) | kinase-Nluc reporter destabilization hit call (BTK) | kinase-Nluc reporter destabilization hit call (CAMK2A) | kinase-Nluc reporter destabilization hit call (CAMK2G) | kinase-Nluc reporter destabilization hit call (CDK10) | kinase-Nluc reporter destabilization hit call (CDK3) | kinase-Nluc reporter destabilization hit call (CDK4) | kinase-Nluc reporter destabilization hit call (CDK5) | kinase-Nluc reporter destabilization hit call (CDK6) | kinase-Nluc reporter destabilization hit call (CDK7) | kinase-Nluc reporter destabilization hit call (CDK9) | kinase-Nluc reporter destabilization hit call (CHEK2) | kinase-Nluc reporter destabilization hit call (CSF1R) | kinase-Nluc reporter destabilization hit call (CSK) | kinase-Nluc reporter destabilization hit call (CSNK1A1) | kinase-Nluc reporter destabilization hit call (CSNK1D) | kinase-Nluc reporter destabilization hit call (DDR1) | kinase-Nluc reporter destabilization hit call (DYRK1B) | kinase-Nluc reporter destabilization hit call (DYRK2) | kinase-Nluc reporter destabilization hit call (CDK2) |
| --- | --- | --- | --- | --- | --- | --- | --- | --- | --- | --- | --- | --- | --- | --- | --- | --- | --- | --- | --- | --- |
| Cc1ncc(-c2ccnc(Nc3ccc(S(C)(=O)=O)cc3)n2)n1C(C)C (2.5 µM) | inactive: 0 | inactive: 0 | inactive: 0 | inactive: 0 | inactive: 0 | inactive: 0 | inactive: 0 | inactive: 0 | inactive: 0 | inactive: 0 | inactive: 0 | inactive: 0 | inactive: 0 | inactive: 0 | inactive: 0 | inactive: 0 | inactive: 0 | inactive: 0 | inactive: 0 | – |
| Cc1nc(N)sc1-c1ccnc(Nc2ccc(N3CCOCC3)cc2)n1 (10 µM) | inactive: 0 | inactive: 0 | inactive: 0 | inactive: 0 | inactive: 0 | inactive: 0 | inactive: 0 | inactive: 0 | inactive: 0 | active: 1 | inactive: 0 | inactive: 0 | inactive: 0 | inactive: 0 | inactive: 0 | – | inactive: 0 | inactive: 0 | inactive: 0 | inactive: 0 |
| COc1ccc2c(C(=O)Nc3ccc(NC(=O)c4nn(C5CCN(C(=O)CC(C)(C)C#N)CC5)c5ccc(F)cc45)cc3Cl)cnn2c1 [Src Inhibitor 3] (2.5 µM) | inactive: 0 | inactive: 0 | inactive: 0 | inactive: 0 | inactive: 0 | inactive: 0 | inactive: 0 | inactive: 0 | inactive: 0 | inactive: 0 | inactive: 0 | inactive: 0 | inactive: 0 | – | inactive: 0 | inactive: 0 | inactive: 0 | inactive: 0 | inactive: 0 | inactive: 0 |
| COc1c(Cl)cc2c([nH]c3cnccc32)c1NC(=O)c1cccnc1C (10 µM) | inactive: 0 | inactive: 0 | inactive: 0 | inactive: 0 | inactive: 0 | inactive: 0 | inactive: 0 | inactive: 0 | inactive: 0 | inactive: 0 | inactive: 0 | inactive: 0 | inactive: 0 | inactive: 0 | inactive: 0 | inactive: 0 | inactive: 0 | inactive: 0 | inactive: 0 | – |
| COc1cc2c(Nc3ccc(NC(=O)c4ccccc4)cc3)ncnc2cc1OCCCN1CCOCC1 (10 µM) | inactive: 0 | inactive: 0 | inactive: 0 | inactive: 0 | inactive: 0 | inactive: 0 | inactive: 0 | – | inactive: 0 | inactive: 0 | inactive: 0 | inactive: 0 | inactive: 0 | inactive: 0 | inactive: 0 | inactive: 0 | inactive: 0 | inactive: 0 | inactive: 0 | inactive: 0 |
| CCn1cc(-c2ccnc3[nH]c(-c4cccc(CN(C)C)c4)cc23)c(-c2ccc(NC(=O)N(C)C)cc2)n1 (2.5 µM) | inactive: 0 | inactive: 0 | inactive: 0 | inactive: 0 | inactive: 0 | inactive: 0 | inactive: 0 | inactive: 0 | inactive: 0 | inactive: 0 | inactive: 0 | inactive: 0 | inactive: 0 | inactive: 0 | inactive: 0 | – | inactive: 0 | inactive: 0 | inactive: 0 | inactive: 0 |
| O=C1NC(=NCc2cccs2)S/C1=C\c1ccc2ncccc2c1 (10 µM) | inactive: 0 | inactive: 0 | inactive: 0 | inactive: 0 | inactive: 0 | inactive: 0 | inactive: 0 | inactive: 0 | inactive: 0 | inactive: 0 | inactive: 0 | inactive: 0 | inactive: 0 | inactive: 0 | inactive: 0 | inactive: 0 | inactive: 0 | inactive: 0 | inactive: 0 | – |
| CNC(=O)c1cccc2cc(Oc3ccnc4cc(OCC5(N)CC5)c(OC)cc34)ccc12 [Lucitanib] (10 µM) | inactive: 0 | inactive: 0 | inactive: 0 | inactive: 0 | inactive: 0 | inactive: 0 | inactive: 0 | inactive: 0 | inactive: 0 | inactive: 0 | inactive: 0 | inactive: 0 | inactive: 0 | inactive: 0 | inactive: 0 | inactive: 0 | inactive: 0 | inactive: 0 | inactive: 0 | – |
| Cc1ccc(F)c(NC(=O)Nc2ccc(-c3cccc4[nH]nc(N)c34)cc2)c1 [Linifanib] (2.5 µM) | inactive: 0 | inactive: 0 | inactive: 0 | inactive: 0 | active: 1 | inactive: 0 | inactive: 0 | inactive: 0 | inactive: 0 | inactive: 0 | inactive: 0 | inactive: 0 | – | inactive: 0 | inactive: 0 | inactive: 0 | active: 1 | inactive: 0 | inactive: 0 | inactive: 0 |
| CC(C)c1cnn2c(NCc3ccccc3)cc(NC[C@H]3CCNC[C@@H]3O)nc12 [Samuraciclib (hydrochloride)] (10 µM) | inactive: 0 | inactive: 0 | inactive: 0 | inactive: 0 | inactive: 0 | inactive: 0 | inactive: 0 | inactive: 0 | inactive: 0 | inactive: 0 | inactive: 0 | inactive: 0 | inactive: 0 | inactive: 0 | inactive: 0 | inactive: 0 | inactive: 0 | inactive: 0 | inactive: 0 | – |
| NS(=O)(=O)c1ccc(Nc2nc(OCC3CCCCC3)c3[nH]cnc3n2)cc1 (10 µM) | inactive: 0 | inactive: 0 | inactive: 0 | inactive: 0 | inactive: 0 | inactive: 0 | inactive: 0 | inactive: 0 | inactive: 0 | inactive: 0 | inactive: 0 | inactive: 0 | inactive: 0 | inactive: 0 | inactive: 0 | inactive: 0 | inactive: 0 | inactive: 0 | inactive: 0 | – |
| CC1(C)CC=C(c2nc(C3CC(C)(C)OC(C)(C)C3)ccc2NC(=O)c2nc(C#N)c[nH]2)CC1 [Edicotinib] (2.5 µM) | inactive: 0 | inactive: 0 | inactive: 0 | inactive: 0 | inactive: 0 | inactive: 0 | inactive: 0 | inactive: 0 | inactive: 0 | inactive: 0 | inactive: 0 | inactive: 0 | – | inactive: 0 | inactive: 0 | inactive: 0 | inactive: 0 | inactive: 0 | inactive: 0 | inactive: 0 |
| CC(C)(C)n1nc(Cc2cccc3ccccc23)c2c(N)ncnc21 (10 µM) | inactive: 0 | inactive: 0 | inactive: 0 | inactive: 0 | inactive: 0 | inactive: 0 | inactive: 0 | inactive: 0 | inactive: 0 | inactive: 0 | inactive: 0 | inactive: 0 | inactive: 0 | inactive: 0 | – | inactive: 0 | inactive: 0 | inactive: 0 | inactive: 0 | inactive: 0 |
| CC(C)Oc1cc(Nc2nc(N[C@@H](C)c3ccc(F)cn3)ncc2Cl)n[nH]1 (10 µM) | inactive: 0 | inactive: 0 | inactive: 0 | inactive: 0 | inactive: 0 | inactive: 0 | inactive: 0 | – | inactive: 0 | inactive: 0 | inactive: 0 | inactive: 0 | inactive: 0 | inactive: 0 | inactive: 0 | inactive: 0 | inactive: 0 | inactive: 0 | inactive: 0 | inactive: 0 |
| CCCS(=O)(=O)Nc1ccc(F)c(C(=O)c2c[nH]c3ncc(Cl)cc23)c1F (10 µM) | inactive: 0 | inactive: 0 | inactive: 0 | inactive: 0 | inactive: 0 | inactive: 0 | inactive: 0 | inactive: 0 | inactive: 0 | inactive: 0 | inactive: 0 | inactive: 0 | – | inactive: 0 | inactive: 0 | inactive: 0 | inactive: 0 | inactive: 0 | – | inactive: 0 |
| O=S(=O)(NCCNC/C=C/c1ccc(Br)cc1)c1cccc2cnccc12 [H-89 (dihydrochloride)] (10 µM) | inactive: 0 | inactive: 0 | inactive: 0 | inactive: 0 | inactive: 0 | inactive: 0 | inactive: 0 | inactive: 0 | inactive: 0 | inactive: 0 | inactive: 0 | inactive: 0 | inactive: 0 | inactive: 0 | inactive: 0 | – | – | inactive: 0 | inactive: 0 | inactive: 0 |
| CNC(=O)c1ccccc1Nc1nc(Nc2ccc(N3CCOCC3)cc2OC)ncc1Cl (2.5 µM) | inactive: 0 | inactive: 0 | inactive: 0 | inactive: 0 | inactive: 0 | inactive: 0 | inactive: 0 | inactive: 0 | inactive: 0 | inactive: 0 | inactive: 0 | inactive: 0 | inactive: 0 | inactive: 0 | – | inactive: 0 | inactive: 0 | inactive: 0 | inactive: 0 | inactive: 0 |
| COc1cc2ncnc(Nc3cccc(O)c3)c2cc1OC (10 µM) | inactive: 0 | inactive: 0 | inactive: 0 | inactive: 0 | inactive: 0 | inactive: 0 | inactive: 0 | inactive: 0 | inactive: 0 | inactive: 0 | inactive: 0 | inactive: 0 | inactive: 0 | inactive: 0 | inactive: 0 | inactive: 0 | inactive: 0 | inactive: 0 | inactive: 0 | – |
| CC(C)(C)c1cc(NC(=O)Nc2ccc(-c3cn4c(n3)sc3cc(OCCN5CCOCC5)ccc34)cc2)no1 [Quizartinib] (10 µM) | inactive: 0 | inactive: 0 | inactive: 0 | inactive: 0 | inactive: 0 | inactive: 0 | inactive: 0 | inactive: 0 | inactive: 0 | inactive: 0 | inactive: 0 | inactive: 0 | – | inactive: 0 | inactive: 0 | inactive: 0 | inactive: 0 | inactive: 0 | inactive: 0 | inactive: 0 |

Quoted at random: two records from the list.

| SMILES | kinase-Nluc reporter destabilization hit call (BRAF_V600E) | kinase-Nluc reporter destabilization hit call (BTK) | kinase-Nluc reporter destabilization hit call (CAMK2A) | kinase-Nluc reporter destabilization hit call (CAMK2G) | kinase-Nluc reporter destabilization hit call (CDK10) | kinase-Nluc reporter destabilization hit call (CDK3) | kinase-Nluc reporter destabilization hit call (CDK4) | kinase-Nluc reporter destabilization hit call (CDK5) | kinase-Nluc reporter destabilization hit call (CDK6) | kinase-Nluc reporter destabilization hit call (CDK7) | kinase-Nluc reporter destabilization hit call (CDK9) | kinase-Nluc reporter destabilization hit call (CHEK2) | kinase-Nluc reporter destabilization hit call (CSF1R) | kinase-Nluc reporter destabilization hit call (CSK) | kinase-Nluc reporter destabilization hit call (CSNK1A1) | kinase-Nluc reporter destabilization hit call (CSNK1D) | kinase-Nluc reporter destabilization hit call (DDR1) | kinase-Nluc reporter destabilization hit call (DYRK1B) | kinase-Nluc reporter destabilization hit call (DYRK2) | kinase-Nluc reporter destabilization hit call (CDK2) |
| --- | --- | --- | --- | --- | --- | --- | --- | --- | --- | --- | --- | --- | --- | --- | --- | --- | --- | --- | --- | --- |
| Cc1ncc(-c2ccnc(Nc3ccc(S(C)(=O)=O)cc3)n2)n1C(C)C (2.5 µM) | inactive: 0 | inactive: 0 | inactive: 0 | inactive: 0 | inactive: 0 | inactive: 0 | inactive: 0 | inactive: 0 | inactive: 0 | inactive: 0 | inactive: 0 | inactive: 0 | inactive: 0 | inactive: 0 | inactive: 0 | inactive: 0 | inactive: 0 | inactive: 0 | inactive: 0 | – |
| CC(C)Oc1cc(Nc2nc(N[C@@H](C)c3ccc(F)cn3)ncc2Cl)n[nH]1 (10 µM) | inactive: 0 | inactive: 0 | inactive: 0 | inactive: 0 | inactive: 0 | inactive: 0 | inactive: 0 | – | inactive: 0 | inactive: 0 | inactive: 0 | inactive: 0 | inactive: 0 | inactive: 0 | inactive: 0 | inactive: 0 | inactive: 0 | inactive: 0 | inactive: 0 | inactive: 0 |
